Experimental data taken from the supplement of paper PMC10849652.
This is one part of the list.

Chains of the proteins cited; added tags and fusions are not shown. Lines headed by an entry give the natural chain unless they say otherwise; changes in a name come on top.
UniProt Q15819: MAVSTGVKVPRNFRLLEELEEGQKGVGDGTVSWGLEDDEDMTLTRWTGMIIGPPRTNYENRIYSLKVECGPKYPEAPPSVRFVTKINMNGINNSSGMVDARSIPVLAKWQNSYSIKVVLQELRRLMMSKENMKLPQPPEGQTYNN
UniProt Q6IBS0: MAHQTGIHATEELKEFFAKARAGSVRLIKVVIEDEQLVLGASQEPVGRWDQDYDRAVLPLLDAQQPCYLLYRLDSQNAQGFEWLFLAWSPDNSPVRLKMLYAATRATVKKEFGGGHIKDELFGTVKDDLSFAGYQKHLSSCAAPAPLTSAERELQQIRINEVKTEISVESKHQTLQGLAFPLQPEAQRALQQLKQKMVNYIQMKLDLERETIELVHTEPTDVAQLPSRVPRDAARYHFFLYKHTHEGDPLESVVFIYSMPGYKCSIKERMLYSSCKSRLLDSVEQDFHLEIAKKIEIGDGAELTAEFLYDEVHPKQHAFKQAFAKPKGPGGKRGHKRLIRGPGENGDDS
UniProt Q14166: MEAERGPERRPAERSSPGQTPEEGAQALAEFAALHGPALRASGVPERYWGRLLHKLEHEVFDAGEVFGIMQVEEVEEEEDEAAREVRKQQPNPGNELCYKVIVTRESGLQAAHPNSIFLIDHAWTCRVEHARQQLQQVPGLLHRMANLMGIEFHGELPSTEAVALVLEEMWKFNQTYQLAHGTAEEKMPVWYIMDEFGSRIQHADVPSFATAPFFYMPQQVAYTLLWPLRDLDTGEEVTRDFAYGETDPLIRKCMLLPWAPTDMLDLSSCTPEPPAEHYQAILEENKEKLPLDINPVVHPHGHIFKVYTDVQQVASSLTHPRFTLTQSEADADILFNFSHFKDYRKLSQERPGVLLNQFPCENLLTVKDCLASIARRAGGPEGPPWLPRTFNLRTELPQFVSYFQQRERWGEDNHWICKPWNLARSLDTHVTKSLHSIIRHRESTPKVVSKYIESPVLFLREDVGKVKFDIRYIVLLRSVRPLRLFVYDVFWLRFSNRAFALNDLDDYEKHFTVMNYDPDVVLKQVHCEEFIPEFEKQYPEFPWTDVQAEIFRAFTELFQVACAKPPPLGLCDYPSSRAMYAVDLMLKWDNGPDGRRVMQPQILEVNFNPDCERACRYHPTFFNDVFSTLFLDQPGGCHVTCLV
UniProt Q969M7: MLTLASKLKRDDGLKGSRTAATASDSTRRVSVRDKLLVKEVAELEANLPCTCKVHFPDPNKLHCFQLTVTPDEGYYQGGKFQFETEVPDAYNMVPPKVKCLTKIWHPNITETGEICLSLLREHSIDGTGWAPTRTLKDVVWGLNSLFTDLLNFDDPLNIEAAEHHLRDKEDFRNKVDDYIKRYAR
UniProt O14530: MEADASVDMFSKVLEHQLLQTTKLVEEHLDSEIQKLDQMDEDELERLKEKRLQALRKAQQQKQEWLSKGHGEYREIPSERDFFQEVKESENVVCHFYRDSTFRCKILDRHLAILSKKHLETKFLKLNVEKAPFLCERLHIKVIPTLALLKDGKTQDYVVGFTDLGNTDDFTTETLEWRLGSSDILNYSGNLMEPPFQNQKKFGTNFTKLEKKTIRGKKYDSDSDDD
UniProt Q6DKK2: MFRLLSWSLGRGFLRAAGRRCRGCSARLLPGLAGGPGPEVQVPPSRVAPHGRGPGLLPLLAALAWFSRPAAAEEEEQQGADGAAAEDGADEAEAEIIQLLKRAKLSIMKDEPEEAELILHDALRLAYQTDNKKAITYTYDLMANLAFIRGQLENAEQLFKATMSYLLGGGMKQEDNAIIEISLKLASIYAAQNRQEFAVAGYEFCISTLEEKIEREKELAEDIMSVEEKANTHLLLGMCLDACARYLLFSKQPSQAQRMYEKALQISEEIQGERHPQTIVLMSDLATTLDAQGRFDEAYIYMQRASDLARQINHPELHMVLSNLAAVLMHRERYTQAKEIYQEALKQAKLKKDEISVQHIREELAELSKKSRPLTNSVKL
UniProt Q96AE7: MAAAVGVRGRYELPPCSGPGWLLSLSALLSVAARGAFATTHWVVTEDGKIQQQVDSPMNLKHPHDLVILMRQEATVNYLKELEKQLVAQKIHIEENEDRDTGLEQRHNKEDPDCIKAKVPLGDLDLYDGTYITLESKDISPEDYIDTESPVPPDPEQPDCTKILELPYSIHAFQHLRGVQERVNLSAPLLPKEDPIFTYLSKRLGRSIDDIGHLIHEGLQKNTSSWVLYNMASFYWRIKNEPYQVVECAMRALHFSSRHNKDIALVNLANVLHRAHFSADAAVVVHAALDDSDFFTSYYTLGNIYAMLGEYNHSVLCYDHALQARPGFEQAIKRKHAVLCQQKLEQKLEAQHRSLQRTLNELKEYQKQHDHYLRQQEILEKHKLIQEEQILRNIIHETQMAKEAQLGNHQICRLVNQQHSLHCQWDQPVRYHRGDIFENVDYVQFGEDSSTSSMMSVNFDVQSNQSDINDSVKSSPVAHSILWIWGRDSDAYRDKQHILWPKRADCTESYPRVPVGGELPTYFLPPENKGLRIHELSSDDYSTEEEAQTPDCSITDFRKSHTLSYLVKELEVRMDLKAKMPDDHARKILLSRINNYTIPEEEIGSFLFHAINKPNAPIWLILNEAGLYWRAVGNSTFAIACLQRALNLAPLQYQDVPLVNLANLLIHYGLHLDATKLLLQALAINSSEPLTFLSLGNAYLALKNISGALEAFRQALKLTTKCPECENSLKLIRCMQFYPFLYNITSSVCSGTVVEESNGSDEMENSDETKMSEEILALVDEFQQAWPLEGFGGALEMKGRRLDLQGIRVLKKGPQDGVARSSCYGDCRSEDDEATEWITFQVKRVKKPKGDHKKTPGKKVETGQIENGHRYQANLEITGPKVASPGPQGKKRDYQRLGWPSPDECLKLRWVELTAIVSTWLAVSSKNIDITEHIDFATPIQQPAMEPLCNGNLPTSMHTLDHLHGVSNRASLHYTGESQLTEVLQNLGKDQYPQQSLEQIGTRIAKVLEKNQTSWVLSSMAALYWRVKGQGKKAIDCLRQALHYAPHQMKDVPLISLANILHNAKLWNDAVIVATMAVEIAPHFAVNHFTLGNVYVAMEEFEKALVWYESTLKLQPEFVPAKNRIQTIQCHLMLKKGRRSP
UniProt P23258, whole entry, looked up: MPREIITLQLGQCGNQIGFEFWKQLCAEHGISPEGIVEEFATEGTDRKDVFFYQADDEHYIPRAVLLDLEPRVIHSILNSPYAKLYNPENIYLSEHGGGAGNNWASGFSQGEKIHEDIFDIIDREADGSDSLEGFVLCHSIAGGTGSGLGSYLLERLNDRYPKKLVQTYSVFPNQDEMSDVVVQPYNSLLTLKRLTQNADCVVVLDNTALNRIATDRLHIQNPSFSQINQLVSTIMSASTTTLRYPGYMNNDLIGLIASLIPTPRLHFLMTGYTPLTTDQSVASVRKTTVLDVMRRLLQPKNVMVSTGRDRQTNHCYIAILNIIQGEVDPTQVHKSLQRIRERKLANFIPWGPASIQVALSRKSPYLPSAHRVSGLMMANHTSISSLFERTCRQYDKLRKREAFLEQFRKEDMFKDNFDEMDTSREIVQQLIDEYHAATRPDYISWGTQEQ
UniProt Q6IPR3: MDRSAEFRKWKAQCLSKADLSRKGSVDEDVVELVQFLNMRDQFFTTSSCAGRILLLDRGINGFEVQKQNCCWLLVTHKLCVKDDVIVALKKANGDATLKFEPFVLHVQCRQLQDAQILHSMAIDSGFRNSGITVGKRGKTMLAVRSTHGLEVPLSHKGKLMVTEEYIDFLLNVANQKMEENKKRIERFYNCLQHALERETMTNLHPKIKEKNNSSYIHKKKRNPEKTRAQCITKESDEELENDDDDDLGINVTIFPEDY
UniProt Q16222: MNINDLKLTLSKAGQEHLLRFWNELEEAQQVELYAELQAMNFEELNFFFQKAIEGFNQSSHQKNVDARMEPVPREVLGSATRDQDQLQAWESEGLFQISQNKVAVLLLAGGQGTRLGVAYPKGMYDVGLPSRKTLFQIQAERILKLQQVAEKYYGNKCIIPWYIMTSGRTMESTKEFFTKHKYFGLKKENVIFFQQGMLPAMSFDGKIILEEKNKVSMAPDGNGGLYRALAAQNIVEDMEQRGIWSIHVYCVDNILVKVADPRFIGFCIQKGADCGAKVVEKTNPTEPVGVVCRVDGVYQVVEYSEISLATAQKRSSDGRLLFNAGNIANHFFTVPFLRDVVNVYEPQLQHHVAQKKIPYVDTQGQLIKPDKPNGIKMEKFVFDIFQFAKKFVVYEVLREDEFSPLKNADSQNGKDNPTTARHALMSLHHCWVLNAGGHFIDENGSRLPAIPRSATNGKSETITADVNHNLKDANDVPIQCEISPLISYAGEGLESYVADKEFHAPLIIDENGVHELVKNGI
UniProt Q13509, whole entry, looked up: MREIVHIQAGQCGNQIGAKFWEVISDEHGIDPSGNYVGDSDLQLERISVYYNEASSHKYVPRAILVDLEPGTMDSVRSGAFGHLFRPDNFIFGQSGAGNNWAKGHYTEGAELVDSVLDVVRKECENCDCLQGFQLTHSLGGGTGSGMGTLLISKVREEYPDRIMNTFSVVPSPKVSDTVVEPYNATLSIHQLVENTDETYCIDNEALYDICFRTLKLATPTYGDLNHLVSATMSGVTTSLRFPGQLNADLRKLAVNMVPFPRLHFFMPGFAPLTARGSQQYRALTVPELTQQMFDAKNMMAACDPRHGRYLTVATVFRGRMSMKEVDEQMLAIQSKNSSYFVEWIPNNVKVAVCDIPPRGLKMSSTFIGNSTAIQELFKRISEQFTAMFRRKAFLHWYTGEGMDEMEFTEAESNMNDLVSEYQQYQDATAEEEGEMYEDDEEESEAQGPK
UniProt Q9NNW7, whole entry, looked up: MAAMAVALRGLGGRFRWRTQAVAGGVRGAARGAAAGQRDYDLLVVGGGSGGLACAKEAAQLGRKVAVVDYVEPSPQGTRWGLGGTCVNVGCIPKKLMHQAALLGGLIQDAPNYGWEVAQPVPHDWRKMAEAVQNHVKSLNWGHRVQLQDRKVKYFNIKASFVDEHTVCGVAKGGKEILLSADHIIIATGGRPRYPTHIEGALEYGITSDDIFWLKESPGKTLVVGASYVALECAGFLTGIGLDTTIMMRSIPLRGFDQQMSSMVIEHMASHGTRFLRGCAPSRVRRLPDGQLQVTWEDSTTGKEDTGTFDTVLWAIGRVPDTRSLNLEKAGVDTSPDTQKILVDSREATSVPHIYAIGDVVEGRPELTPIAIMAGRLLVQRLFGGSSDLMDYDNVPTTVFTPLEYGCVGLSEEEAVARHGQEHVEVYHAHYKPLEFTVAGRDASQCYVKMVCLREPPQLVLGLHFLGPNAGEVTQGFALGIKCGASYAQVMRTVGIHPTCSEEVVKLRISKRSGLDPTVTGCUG
UniProt Q13630: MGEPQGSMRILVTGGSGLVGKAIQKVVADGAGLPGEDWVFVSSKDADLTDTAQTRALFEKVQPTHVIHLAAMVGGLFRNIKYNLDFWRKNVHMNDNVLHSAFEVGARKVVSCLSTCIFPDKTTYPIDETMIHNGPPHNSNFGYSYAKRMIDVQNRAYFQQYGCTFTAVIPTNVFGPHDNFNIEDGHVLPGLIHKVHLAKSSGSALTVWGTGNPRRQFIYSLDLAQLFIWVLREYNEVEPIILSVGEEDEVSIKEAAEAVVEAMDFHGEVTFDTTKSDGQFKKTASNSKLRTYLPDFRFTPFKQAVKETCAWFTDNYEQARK
UniProt P40222: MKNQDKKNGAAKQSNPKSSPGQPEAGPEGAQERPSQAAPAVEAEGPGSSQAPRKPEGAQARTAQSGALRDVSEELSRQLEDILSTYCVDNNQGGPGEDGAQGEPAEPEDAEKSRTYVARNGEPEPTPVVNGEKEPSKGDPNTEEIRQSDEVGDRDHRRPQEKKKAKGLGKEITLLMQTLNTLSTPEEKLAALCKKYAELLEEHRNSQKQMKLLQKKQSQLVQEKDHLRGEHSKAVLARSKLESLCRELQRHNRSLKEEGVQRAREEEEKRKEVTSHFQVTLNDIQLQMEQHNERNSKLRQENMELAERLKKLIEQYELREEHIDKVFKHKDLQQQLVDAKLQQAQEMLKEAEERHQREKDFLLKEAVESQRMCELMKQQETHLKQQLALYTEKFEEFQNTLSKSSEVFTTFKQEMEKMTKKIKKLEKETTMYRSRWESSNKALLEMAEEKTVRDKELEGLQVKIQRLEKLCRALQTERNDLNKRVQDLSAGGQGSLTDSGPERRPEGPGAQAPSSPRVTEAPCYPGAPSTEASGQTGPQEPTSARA
UniProt Q9BQE3, whole entry, looked up: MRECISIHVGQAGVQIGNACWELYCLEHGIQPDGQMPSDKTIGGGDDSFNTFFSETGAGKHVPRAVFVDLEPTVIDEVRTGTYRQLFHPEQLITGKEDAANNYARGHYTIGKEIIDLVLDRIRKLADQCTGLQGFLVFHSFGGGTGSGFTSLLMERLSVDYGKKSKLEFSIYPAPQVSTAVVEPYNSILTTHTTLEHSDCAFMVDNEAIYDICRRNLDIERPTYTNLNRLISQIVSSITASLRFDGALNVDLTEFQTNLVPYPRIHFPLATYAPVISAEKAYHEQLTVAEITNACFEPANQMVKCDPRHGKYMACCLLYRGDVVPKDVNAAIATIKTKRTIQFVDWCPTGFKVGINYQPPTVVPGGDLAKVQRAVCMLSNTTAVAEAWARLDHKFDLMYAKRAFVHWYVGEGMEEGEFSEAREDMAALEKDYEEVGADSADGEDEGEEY

What was measured:
Experiment in all cases: log2 fold change, soluble protein after heating vs DMSO (PISA); higher = thermal stabilisation; K562 cells, 10 uM, 30 min; active = over 0.2 and 3.5 SD of the protein, either way, in both replicates (recomputed)
[1] = compound: CC1=C(C=C(C=C1)NC(=O)C2=CC(=CC=C2)C(C)(C)C#N)NC3=CC4=C(C=C3)N=CN(C4=O)C
In short: (§1)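 Quantification of soluble protein used TMTpro 16plex LC-MS/MS, with channel sums equalised. Samples were the supernatant after 21,000xg for 90 min of pooled aliquots from K562 cells (2×10^6 cells/mL) treated with 10 μM compound for 30 min, heated for 3 min over 48°C-58°C, and extracted in PBS with 0.5% NP-40 at 4°C. Values, from duplicates, describe thermal stability against control samples on a log2 fold-change scale.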

[2] = compound: CC1=C(C=C(C=C1)NC(=O)C2=CC(=CC=C2)N(C)C)NC(=O)C3=CC=C(C=C3)O
In short: as §1

[3] = compound: CC1=CC=C(C=C1)SC2=C3C=C(SC3=CN=C2)C(=O)N
In short: as §1

[4] = compound: CC1=NC(=CC=C1)C2=C(N=C(N2)C(C)(C)C)C3=CC4=NC=CN=C4C=C3
In short: as §1

Nexturastat A = compound: CCCCN(Cc1ccc(C(=O)NO)cc1)C(=O)Nc1ccccc1 [Nexturastat A]
In short: as §1

vemurafenib = compound: CCCS(=O)(=O)Nc1ccc(F)c(C(=O)c2c[nH]c3ncc(-c4ccc(Cl)cc4)cc23)c1F [vemurafenib]
In short: as §1

[5] = compound: CCCS(=O)(=O)Nc1ccc(F)c(C(=O)c2c[nH]c3ncc(Cl)cc23)c1F
In short: as §1

[6] = compound: CCCc1cc(C)[nH]c(=O)c1CNC(=O)c1cc(-c2ccnc(N3CCN(C)CC3)c2)cc2c1cnn2C(C)C
In short: as §1

givinostat = compound: CCN(CC)Cc1ccc2cc(COC(=O)Nc3ccc(C(=O)NO)cc3)ccc2c1 [givinostat]
In short: as §1

barasertib = compound: CCN(CCCOc1ccc2c(Nc3cc(CC(=O)Nc4cccc(F)c4)[nH]n3)ncnc2c1)CCOP(=O)(O)O [barasertib]
In short: as §1

[7] = compound: CC[C@@H]1C(=O)N(C)c2cnc(Nc3ccc(C(=O)NC4CCN(C)CC4)cc3OC)nc2N1C1CCCC1
In short: as §1

volasertib = compound: CC[C@@H]1C(=O)N(C)c2cnc(Nc3ccc(C(=O)N[C@H]4CC[C@H](N5CCN(CC6CC6)CC5)CC4)cc3OC)nc2N1C(C)C [volasertib]
In short: as §1

[8] = compound: CC[C@H](C)N1C=C(C2=C(C=C(C=C21)C3=CN=C(C=C3)N4CCNCC4)C(=O)NCC5=C(C=C(NC5=O)C)C)C
In short: as §1

epoxomicin = compound: CC[C@H](C)[C@@H](C(=O)N[C@@H]([C@@H](C)O)C(=O)N[C@@H](CC(C)C)C(=O)[C@]1(CO1)C)NC(=O)[C@H]([C@@H](C)CC)N(C)C(=O)C [epoxomicin]
In short: as §1

[9] = compound: CCn1c(C(=O)N(C2CC2)C2CC2)cc2c3c(ncn3C)c(Nc3cc(C)n(C)n3)nc21
In short: as §1

[10] = compound: CCn1cc(-c2ccnc3[nH]c(-c4cccc(CN(C)C)c4)cc23)c(-c2ccc(NC(=O)N(C)C)cc2)n1
In short: as §1

[11] = compound: CN(C)CC(=O)Nc1ccc2[nH]c(=O)c3ccccc3c2c1
In short: as §1

rosiglitazone = compound: CN(CCOC1=CC=C(C=C1)C[C@H]2C(=O)NC(=O)S2)C3=CC=CC=N3 (racemic) [rosiglitazone]
In short: as §1

[12] = compound: CN1C2=C(C3=C1C(=O)N(N=C3)CC4=CC(=CC=C4)N)SC(=C2)S(=O)C
In short: as §1

[13] = compound: CN1CCC(CNc2ccc3ncc(-c4cccc(OC(F)(F)F)c4)n3n2)CC1
In short: as §1

Measured: log2 fold change

UBE2V2 (UniProt Q15819)
inactive: [1] 0 | [2] 0.007 | [3] 0.007 | [4] 0.028 | Nexturastat A -0.056 | vemurafenib 0.033 | [5] 0.011 | [6] -0.022 | givinostat 0.011 | barasertib -0.006 | [7] -0.026 | volasertib 0.026 | [8] -0.003 | epoxomicin 0.015 | [9] 0 | [10] -0.032 | [11] -0.016 | rosiglitazone 0.028 | [12] -0.049 | [13] -0.058

TWF2 (UniProt Q6IBS0)
inactive: [1] 0.093 | [2] -0.036 | [3] 0.015 | [4] 0.032 | Nexturastat A -0.033 | vemurafenib 0.011 | [5] 0.019 | [6] -0.043 | givinostat 0.032 | barasertib 0.029 | [7] 0.045 | volasertib 0.052 | [8] 0.001 | epoxomicin 0.065 | [9] -0.024 | [10] -0.041 | [11] -0.023 | rosiglitazone 0.01 | [12] -0.036 | [13] 0.037

TTLL12 (UniProt Q14166)
inactive: [1] 0.104 | [2] 0.042 | [3] -0.013 | [4] -0.062 | Nexturastat A 0.305 | vemurafenib 0.087 | [5] -0.055 | [6] 0.193 | givinostat 0.185 | barasertib 0.041 | [7] 0.024 | volasertib -0.262 | [8] 0.161 | epoxomicin -0.097 | [9] -0.109 | [10] 0.064 | [11] -0.042 | rosiglitazone -0.136 | [12] 0.337 | [13] 0.289

UBE2F isoform 2 (UniProt Q969M7)
inactive: [1] 0.031 | [2] -0.011 | [3] -0.041 | [4] 0.004 | Nexturastat A 0.001 | vemurafenib 0 | [5] 0.005 | [6] 0.001 | givinostat -0.026 | barasertib -0.023 | [7] -0.03 | volasertib -0.055 | [8] 0.046 | epoxomicin -0.012 | [9] -0.131 | [10] -0.104 | [11] -0.058 | rosiglitazone -0.035 | [12] -0.114 | [13] -0.026

TXNDC9 (UniProt O14530)
inactive: [1] 0.038 | [2] -0.008 | [3] 0.009 | [4] 0.009 | Nexturastat A -0.006 | vemurafenib -0.031 | [5] -0.007 | [6] -0.025 | givinostat -0.002 | barasertib 0.001 | [7] -0.003 | volasertib 0.148 | [8] 0.056 | epoxomicin 0.021 | [9] -0.01 | [10] -0.024 | [11] -0.004 | rosiglitazone 0.019 | [12] 0.003 | [13] -0.002

TTC19 (UniProt Q6DKK2)
inactive: [1] 0.002 | [2] -0.005 | [3] 0.053 | [4] 0.028 | Nexturastat A -0.05 | vemurafenib 0.022 | [5] 0.075 | [6] -0.045 | givinostat 0.028 | barasertib -0.001 | [7] -0.035 | volasertib -0.136 | [8] -0.059 | epoxomicin 0.009 | [9] -0.006 | [10] -0.014 | [11] 0.026 | rosiglitazone 0.028 | [12] -0.001 | [13] -0.053

TTC17 (UniProt Q96AE7)
inactive: [1] -0.013 | [2] -0.066 | [3] -0.002 | [4] -0.022 | Nexturastat A 0.017 | vemurafenib 0.011 | [5] -0.047 | [6] -0.051 | givinostat -0.009 | barasertib 0.019 | [7] 0.042 | volasertib 0.17 | [8] -0.036 | epoxomicin -0.029 | [9] -0.012 | [10] -0.001 | [11] -0.035 | rosiglitazone -0.033 | [12] 0.032 | [13] 0.164

TTN isoform 12 (UniProt Q8WZ42)
inactive: [1] -0.256 | [2] -0.011 | [3] -0.187 | [4] -0.174 | Nexturastat A 0.153 | vemurafenib -0.171 | [5] -0.271 | [6] 0.088 | givinostat 0.094 | barasertib 0.08 | [7] 0.056 | volasertib 0.055 | [8] -0.114 | epoxomicin 0.016 | [9] -0.038 | [10] 0.01 | [11] -0.084 | rosiglitazone -0.011 | [12] 0.088 | [13] -0.244

TUBG1 (UniProt P23258)
inactive: [1] -0.046 | [2] 0.029 | [3] -0.015 | [4] -0.024 | Nexturastat A 0.049 | vemurafenib -0.018 | [5] -0.01 | [6] 0.039 | givinostat -0.047 | barasertib 0 | [7] 0.048 | volasertib 0.035 | [8] 0 | epoxomicin 0.025 | [9] 0.098 | [10] 0.018 | [11] 0.012 | rosiglitazone -0.007 | [12] 0.008 | [13] -0.034

Pulled one by one from the entries so far, two records:
TTC17 (UniProt Q96AE7)
inactive: [1] -0.013 | [2] -0.066 | [3] -0.002 | [4] -0.022 | Nexturastat A 0.017 | vemurafenib 0.011 | [5] -0.047 | [6] -0.051 | givinostat -0.009 | barasertib 0.019 | [7] 0.042 | volasertib 0.17 | [8] -0.036 | epoxomicin -0.029 | [9] -0.012 | [10] -0.001 | [11] -0.035 | rosiglitazone -0.033 | [12] 0.032 | [13] 0.164

TTN isoform 12 (UniProt Q8WZ42)
inactive: [1] -0.256 | [2] -0.011 | [3] -0.187 | [4] -0.174 | Nexturastat A 0.153 | vemurafenib -0.171 | [5] -0.271 | [6] 0.088 | givinostat 0.094 | barasertib 0.08 | [7] 0.056 | volasertib 0.055 | [8] -0.114 | epoxomicin 0.016 | [9] -0.038 | [10] 0.01 | [11] -0.084 | rosiglitazone -0.011 | [12] 0.088 | [13] -0.244

Later entries.

TYW3 (UniProt Q6IPR3)
inactive: [1] 0.013 | [2] 0.036 | [3] -0.008 | [4] 0.05 | Nexturastat A 0.244 | vemurafenib -0.077 | [5] -0.015 | [6] 0.054 | givinostat -0.024 | barasertib 0.038 | [7] 0.084 | volasertib 0.176 | [8] -0.068 | epoxomicin -0.031 | [9] 0.022 | [10] 0.008 | [11] -0.021 | rosiglitazone -0.039 | [12] 0.146 | [13] -0.022

UAP1 (UniProt Q16222)
inactive: [1] -0.006 | [2] -0.012 | [3] 0.019 | [4] 0.03 | Nexturastat A -0.072 | vemurafenib -0.023 | [5] 0.005 | [6] -0.046 | givinostat -0.057 | barasertib 0.021 | [7] -0.026 | volasertib 0.016 | [8] 0.011 | epoxomicin 0.033 | [9] -0.015 | [10] -0.066 | [11] -0.005 | rosiglitazone 0.021 | [12] -0.089 | [13] -0.029

TUBB3 (UniProt Q13509)
inactive: [1] -0.025 | [2] -0.012 | [3] 0.011 | [4] 0.076 | Nexturastat A -0.021 | vemurafenib 0.011 | [5] 0.018 | [6] 0.028 | givinostat -0.042 | barasertib -0.002 | [7] -0.032 | volasertib 0.045 | [8] -0.001 | epoxomicin 0.042 | [9] -0.009 | [10] -0.122 | [11] 0.003 | rosiglitazone -0.007 | [12] -0.073 | [13] -0.128

TXNRD2 (UniProt Q9NNW7)
inactive: [1] 0.055 | [2] -0.006 | [3] 0.099 | [4] 0.038 | Nexturastat A 0.017 | vemurafenib -0.042 | [5] -0.016 | [6] -0.029 | givinostat -0.105 | barasertib -0.017 | [7] -0.036 | volasertib -0.019 | [8] 0.129 | epoxomicin -0.007 | [9] -0.048 | [10] -0.082 | [11] 0.01 | rosiglitazone 0.046 | [12] -0.054 | [13] 0.095

TSTA3 (UniProt Q13630)
inactive: [1] -0.026 | [2] 0.006 | [3] -0.037 | [4] 0 | Nexturastat A -0.072 | vemurafenib -0.037 | [5] -0.054 | [6] -0.074 | givinostat 0.016 | barasertib 0.025 | [7] 0.03 | volasertib 0.049 | [8] -0.032 | epoxomicin 0.022 | [9] 0.009 | [10] 0.001 | [11] -0.005 | rosiglitazone 0.004 | [12] -0.045 | [13] -0.055

TXLNA (UniProt P40222)
inactive: [1] 0.008 | [2] 0.004 | [3] -0.024 | [4] 0.03 | Nexturastat A -0.046 | vemurafenib 0.022 | [5] -0.001 | [6] -0.032 | givinostat -0.013 | barasertib 0.006 | [7] -0.011 | volasertib 0.023 | [8] 0.034 | epoxomicin 0.069 | [9] -0.002 | [10] 0 | [11] -0.005 | rosiglitazone 0.024 | [12] -0.06 | [13] 0.038

TUBA1C (UniProt Q9BQE3)
inactive: [1] 0.053 | [2] 0.026 | [3] 0.016 | [4] 0.034 | Nexturastat A -0.025 | vemurafenib -0.005 | [5] -0.016 | [6] 0.007 | givinostat -0.01 | barasertib -0.013 | [7] -0.023 | volasertib 0.013 | [8] -0.016 | epoxomicin 0.029 | [9] -0.025 | [10] -0.058 | [11] 0.023 | rosiglitazone 0.007 | [12] -0.069 | [13] -0.116
